PubChem BioAssay AID1053208, Peter MacCallum Cancer Centre – 2014
Shown is an unselected part of about 17,000 deposited reagents. 788 of them (4.7%) count as active. 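Calls rest on z-score classes alone; an extra cut-off of viability at most 70% of control was not applied to them.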 Further read-outs or replicates are left out here.

Aim: 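Synthetic lethal interactions between gene loss and doxorubicin in osteosarcoma cells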 (primary screen)
System: mouse osteosarcoma cells, early-passage culture from an engineered mouse model of fibroblastic bone tumour
Reagent: siRNA pool against mouse genes, 40 nM
Duration: about 120 h (48 h before drug, then 72 h with drug)
Challenge: doxorubicin 100 nM for 72 h, roughly 30-40% inhibitory dose
Detection: 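Viability read as ATP luminescence after 72 h of 100 nM doxorubicin or none, duplicate wells averaged, scaled to non-targeting siRNA, then expressed as robust z-scores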
Reading the numbers: viability z-score with doxorubicin: higher = more viable cells under doxorubicin; viability z-score without drug: higher = more viable cells with knock-down alone
Hit rule: 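a pool counts as active when its viability z-score with doxorubicin is -2 or below and its z-score without drug lies between -2 and 2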

Fam20a (FAM20A, golgi associated secretory pathway pseudokinase)
- combined z-score class: no change with or without drug
- viability z-score with doxorubicin: -0.67
- viability z-score without drug: 0
- outcome: inactive

Dgcr6 (DiGeorge syndrome critical region gene 6)
- combined z-score class: no change with or without drug
- viability z-score with doxorubicin: -0.22
- viability z-score without drug: -0.67
- outcome: inactive

Pirb (paired Ig-like receptor B)
- combined z-score class: low cell count with doxorubicin only
- viability z-score with doxorubicin: -3.37
- viability z-score without drug: -0.51
- outcome: active

BC051019 (cDNA sequence BC051019)
- combined z-score class: no change with or without drug
- viability z-score with doxorubicin: -1.12
- viability z-score without drug: -0.34
- outcome: inactive

Tspyl2 (TSPY-like 2)
- combined z-score class: no change with or without drug
- viability z-score with doxorubicin: -0.67
- viability z-score without drug: 0.17
- outcome: inactive

Ptk2 (PTK2 protein tyrosine kinase 2)
- combined z-score class: no change with or without drug
- viability z-score with doxorubicin: 0
- viability z-score without drug: -1.52
- outcome: inactive

Nf2 (neurofibromin 2)
- combined z-score class: no change with or without drug
- viability z-score with doxorubicin: 1.35
- viability z-score without drug: 1.85
- outcome: inactive

Rars2 (arginyl-tRNA synthetase 2, mitochondrial)
- combined z-score class: high cell count with doxorubicin only
- viability z-score with doxorubicin: 3.04
- viability z-score without drug: 1.52
- outcome: inactive

Tdpoz3 (TD and POZ domain containing 3)
- combined z-score class: no change with or without drug
- viability z-score with doxorubicin: -1.91
- viability z-score without drug: -1.52
- outcome: inactive

Peak1 (pseudopodium-enriched atypical kinase 1)
- combined z-score class: no change with or without drug
- viability z-score with doxorubicin: -0.9
- viability z-score without drug: 0.84
- outcome: inactive

Records above with an active call, once more:
Pirb (paired Ig-like receptor B)
- combined z-score class: low cell count with doxorubicin only
- viability z-score with doxorubicin: -3.37
- viability z-score without drug: -0.51
- outcome: active

The listing continues:
Slfn2 (schlafen 2)
- combined z-score class: no change with or without drug
- viability z-score with doxorubicin: 0.22
- viability z-score without drug: -0.17
- outcome: inactive

Snapc2 (small nuclear RNA activating complex, polypeptide 2)
- combined z-score class: no change with or without drug
- viability z-score with doxorubicin: -0.34
- viability z-score without drug: 1.52
- outcome: inactive

Prrg2 (proline-rich Gla (G-carboxyglutamic acid) polypeptide 2)
- combined z-score class: low cell count with doxorubicin only
- viability z-score with doxorubicin: -2.02
- viability z-score without drug: -0.51
- outcome: active

Timm17b (translocase of inner mitochondrial membrane 17b)
- combined z-score class: no change with or without drug
- viability z-score with doxorubicin: -0.45
- viability z-score without drug: 0.67
- outcome: inactive

Rnmt (RNA (guanine-7-) methyltransferase)
- combined z-score class: no change with or without drug
- viability z-score with doxorubicin: -1.91
- viability z-score without drug: 0.17
- outcome: inactive

Hjurp (Holliday junction recognition protein)
- combined z-score class: no change with or without drug
- viability z-score with doxorubicin: 0
- viability z-score without drug: -0.84
- outcome: inactive

Pou2f2 (POU domain, class 2, transcription factor 2)
- combined z-score class: no change with or without drug
- viability z-score with doxorubicin: 1.46
- viability z-score without drug: 0.67
- outcome: inactive

Bcl2a1c (B cell leukemia/lymphoma 2 related protein A1c)
- combined z-score class: no change with or without drug
- viability z-score with doxorubicin: 1.12
- viability z-score without drug: 1.35
- outcome: inactive

Zrsr2-ps1
- combined z-score class: low cell count with doxorubicin only
- viability z-score with doxorubicin: -2.25
- viability z-score without drug: -0.51
- outcome: active

Trpm1
- combined z-score class: no change with or without drug
- viability z-score with doxorubicin: 0.45
- viability z-score without drug: 1.35
- outcome: inactive

Kansl1l (KAT8 regulatory NSL complex subunit 1-like)
- combined z-score class: no change with or without drug
- viability z-score with doxorubicin: 0.56
- viability z-score without drug: 0.17
- outcome: inactive

Mgat5 (mannoside acetylglucosaminyltransferase 5)
- combined z-score class: low cell count without drug only
- viability z-score with doxorubicin: -0.9
- viability z-score without drug: -2.36
- outcome: inactive

Dusp23 (dual specificity phosphatase 23)
- combined z-score class: low cell count with doxorubicin only
- viability z-score with doxorubicin: -2.25
- viability z-score without drug: -1.52
- outcome: active

Tnpo2 (transportin 2 (importin 3, karyopherin beta 2b))
- combined z-score class: no change with or without drug
- viability z-score with doxorubicin: 1.35
- viability z-score without drug: -0.34
- outcome: inactive

Etv1 (ets variant 1)
- combined z-score class: no change with or without drug
- viability z-score with doxorubicin: 0.34
- viability z-score without drug: 0.67
- outcome: inactive

Itgb1 (integrin beta 1 (fibronectin receptor beta))
- combined z-score class: no change with or without drug
- viability z-score with doxorubicin: -1.12
- viability z-score without drug: -0.84
- outcome: inactive

Rapgef3 (Rap guanine nucleotide exchange factor (GEF) 3)
- combined z-score class: no change with or without drug
- viability z-score with doxorubicin: 0.67
- viability z-score without drug: -0.17
- outcome: inactive

Dyrk4 (dual-specificity tyrosine phosphorylation regulated kinase 4)
- combined z-score class: no change with or without drug
- viability z-score with doxorubicin: -0.67
- viability z-score without drug: -0.51
- outcome: inactive
